Data on 2 molecules can be found in patent US20260167728A1 (published 2026).

The experiment addresses cynomolgus monkey EGFR (cynomolgus monkey). Briefly: SPR Biacore 37 C.

These are yes or no findings as the source states them, for the method shown. Some binding calls cover weakened binding; strength is not graded here.

B1: AMX-525 (uTCE) (bispecific antibody)
chain: GTSESATPESDIQMTQSPSSLSASVGDRVTITCQASQDISNYLNWYQQKPGKAPKLLIYDASNLETGVPSRFSGSGSGTDFTFTISSLQPEDIATYYCQHFDHLPLAFGQGTKVEIKSESATPESGPGTSPGATPESGPGTSESATPQVQLQESGPGLVKPSETLSLTCTVSGGSVSSGDYYWTWIRQPPGKGLEWIGHIYYSGNTNYNPSLKSRVTISVDTSKNQFSLKLSSVTAADTAVYYCARDRVTGAFDIWGQGTLVTVSSGGGGSELVVTQEPSLTVSPGGTVTLTCRSSNGAVTSSNYANWVQQKPGQAPRGLIGGTNKRAPGTPARFSGSLLEGKAALTLSGVQPEDEAVYYCALWYPNLWVFGGGTKLTVLSESATPESGPGTSPGATPESGPGTSESATPEVQLVESGGGIVQPGGSLRLSCAASGFTFSTYAMNWVRQAPGKGLEWVGRIRTKRNDYATYYADSVKGRFTISRDDSKNTLYLQMNSLKTEDTAVYYCVRHENFGNSYVSWFAHWGQGTLVTVSSGTATPESGPG
notes: Fully unmasked metabolite; also called unmasked AMX-525; not shown: remnant of cleaved RSR-3213
As for B1, the binding entry is on record as “binds”.

B2: AMX-525 (bispecific antibody)
chain: ASSATPESGPGTSTEPSEGSAPGTSESATPESGPGSGPGTSESATPGTSESATPESGPGSEPATSGSETPGTSESATPESGPGTSTEPSEGSAPGSPAGSPTSTEEGTSESATPESGPGSEPATSGSETPGTSESATPESGPGSPAGSPTSTEEGSPAGSPTSTEEGTSTEPSEGSAPGTSESATPESGPGTSESATPESGPGTSESATPESGPGSEPATSGSETPGSEPATSGSETPGSPAGSPTSTEEGTSTEPSEGSAPGTSTEPSEGSAPGSEPATSGSETPGTSESATPEAGRSASHTPAGLTGPGTSESATPESDIQMTQSPSSLSASVGDRVTITCQASQDISNYLNWYQQKPGKAPKLLIYDASNLETGVPSRFSGSGSGTDFTFTISSLQPEDIATYYCQHFDHLPLAFGQGTKVEIKSESATPESGPGTSPGATPESGPGTSESATPQVQLQESGPGLVKPSETLSLTCTVSGGSVSSGDYYWTWIRQPPGKGLEWIGHIYYSGNTNYNPSLKSRVTISVDTSKNQFSLKLSSVTAADTAVYYCARDRVTGAFDIWGQGTLVTVSSGGGGSELVVTQEPSLTVSPGGTVTLTCRSSNGAVTSSNYANWVQQKPGQAPRGLIGGTNKRAPGTPARFSGSLLEGKAALTLSGVQPEDEAVYYCALWYPNLWVFGGGTKLTVLSESATPESGPGTSPGATPESGPGTSESATPEVQLVESGGGIVQPGGSLRLSCAASGFTFSTYAMNWVRQAPGKGLEWVGRIRTKRNDYATYYADSVKGRFTISRDDSKNTLYLQMNSLKTEDTAVYYCVRHENFGNSYVSWFAHWGQGTLVTVSSGTATPESGPGEAGRSASHTPAGLTGPATPESGPGTSESATPESGPGSPAGSPTSTEEGTSESATPESGPGSEPATSGSETPGTSESATPESGPGTSTEPSEGSAPGTSTEPSEGSAPGTSTEPSEGSAPGTSTEPSEGSAPGTSTEPSEGSAPGTSTEPSEGSAPGSPAGSPTSTEEGTSTEPSEGSAPGTSESATPESGPGSEPATSGSETPGTSESATPESGPGSEPATSGSETPGTSESATPESGPGTSTEPSEGSAPGTSESATPESGPGSPAGSPTSTEEGSPAGSPTSTEEGSPAGSPTSTEEGTSESATPESGPGTSTEPSEGSAPGTSESATPESGPGSEPATSGSETPGTSESATPESGPGSEPATSGSETPGTSESATPESGPGTSTEPSEGSAPGSPAGSPTSTEEGTSESATPESGPGSEPATSGSETPGTSESATPESGPGSPAGSPTSTEEGSPAGSPTSTEEGTSTEPSEGSAPGTSESATPESGPGTSESATPESGPGTSPSATPESGPGSEPATSGSETPGSEPATSGSETPGSPAGSPTSTEEGTSTEPSEGSAPGTSTEPSEGSAPGSEPATSGSETPGTSESAGEPEA
notes: Fully masked paTCE; also called AC4230; EGFR.37/CD3.318 paTCE
For B2, the binding result is given as “binds”.
